No constants are given. Whether binding was seen depends on the method and setting. Binding seen in cells or lysates may run through a third protein. Some results given as binding are weak or reduced against the parent protein; the word gives no strength.

Chains of the proteins cited; added tags and fusions are not shown.
UniProt P01106: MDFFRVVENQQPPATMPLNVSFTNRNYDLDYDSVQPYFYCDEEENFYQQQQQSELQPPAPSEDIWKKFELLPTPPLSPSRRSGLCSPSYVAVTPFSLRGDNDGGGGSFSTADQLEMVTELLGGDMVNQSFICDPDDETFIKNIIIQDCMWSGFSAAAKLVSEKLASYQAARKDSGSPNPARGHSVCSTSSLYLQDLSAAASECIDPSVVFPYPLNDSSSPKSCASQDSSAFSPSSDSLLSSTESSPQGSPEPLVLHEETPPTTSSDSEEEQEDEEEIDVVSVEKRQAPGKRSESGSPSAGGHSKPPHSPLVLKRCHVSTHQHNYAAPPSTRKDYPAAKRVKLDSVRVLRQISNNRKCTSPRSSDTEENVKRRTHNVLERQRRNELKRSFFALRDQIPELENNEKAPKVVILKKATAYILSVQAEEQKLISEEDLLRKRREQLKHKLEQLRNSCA

This note sets out measurements from publication PMC6385475.

The target in the test is T1, Lysophosphatidylcholine acyltransferase 1 (human (endogenous in HCC827)) (UniProt Q8NF37).
T1 sequence: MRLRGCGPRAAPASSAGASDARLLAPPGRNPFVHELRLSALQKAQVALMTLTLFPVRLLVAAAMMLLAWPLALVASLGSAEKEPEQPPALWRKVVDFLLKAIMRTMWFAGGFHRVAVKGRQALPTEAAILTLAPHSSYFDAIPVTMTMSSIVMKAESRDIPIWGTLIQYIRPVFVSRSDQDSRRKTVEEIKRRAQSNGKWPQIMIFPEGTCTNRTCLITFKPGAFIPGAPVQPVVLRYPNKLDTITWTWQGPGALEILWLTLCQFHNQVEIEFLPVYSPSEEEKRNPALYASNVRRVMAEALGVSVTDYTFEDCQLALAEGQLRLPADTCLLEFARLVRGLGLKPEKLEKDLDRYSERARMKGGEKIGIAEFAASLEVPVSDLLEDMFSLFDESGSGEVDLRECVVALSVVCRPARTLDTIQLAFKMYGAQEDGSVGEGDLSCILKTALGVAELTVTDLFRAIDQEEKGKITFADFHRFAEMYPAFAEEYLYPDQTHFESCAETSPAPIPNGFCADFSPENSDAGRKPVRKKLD
The test is described as follows: co-IP; endogenous proteins in HCC827 lysate (IP lysis buffer); lysates incubated with anti-LPCAT1 and anti-MYC antibodies separately overnight at 4 °C, protein A/G-agarose beads, washed three times with lysis buffer, western blotting. A general note: Immunoblotting shows a protein as a band on a membrane.

With MYC (from UniProt P01106 1-454), the binding result is recorded as “binds”.
